Results reported in paper PMC12352907.
These are yes or no findings as the source states them, for the method shown. In cells and extracts the contact can be indirect. Some entries that bind do so weakly or less than the wild type. For some of these results: Where a sequence is shown, tags or fusion partners need not be part of it.

Chains of the proteins cited; added tags and fusions are not shown.
UniProt O95477: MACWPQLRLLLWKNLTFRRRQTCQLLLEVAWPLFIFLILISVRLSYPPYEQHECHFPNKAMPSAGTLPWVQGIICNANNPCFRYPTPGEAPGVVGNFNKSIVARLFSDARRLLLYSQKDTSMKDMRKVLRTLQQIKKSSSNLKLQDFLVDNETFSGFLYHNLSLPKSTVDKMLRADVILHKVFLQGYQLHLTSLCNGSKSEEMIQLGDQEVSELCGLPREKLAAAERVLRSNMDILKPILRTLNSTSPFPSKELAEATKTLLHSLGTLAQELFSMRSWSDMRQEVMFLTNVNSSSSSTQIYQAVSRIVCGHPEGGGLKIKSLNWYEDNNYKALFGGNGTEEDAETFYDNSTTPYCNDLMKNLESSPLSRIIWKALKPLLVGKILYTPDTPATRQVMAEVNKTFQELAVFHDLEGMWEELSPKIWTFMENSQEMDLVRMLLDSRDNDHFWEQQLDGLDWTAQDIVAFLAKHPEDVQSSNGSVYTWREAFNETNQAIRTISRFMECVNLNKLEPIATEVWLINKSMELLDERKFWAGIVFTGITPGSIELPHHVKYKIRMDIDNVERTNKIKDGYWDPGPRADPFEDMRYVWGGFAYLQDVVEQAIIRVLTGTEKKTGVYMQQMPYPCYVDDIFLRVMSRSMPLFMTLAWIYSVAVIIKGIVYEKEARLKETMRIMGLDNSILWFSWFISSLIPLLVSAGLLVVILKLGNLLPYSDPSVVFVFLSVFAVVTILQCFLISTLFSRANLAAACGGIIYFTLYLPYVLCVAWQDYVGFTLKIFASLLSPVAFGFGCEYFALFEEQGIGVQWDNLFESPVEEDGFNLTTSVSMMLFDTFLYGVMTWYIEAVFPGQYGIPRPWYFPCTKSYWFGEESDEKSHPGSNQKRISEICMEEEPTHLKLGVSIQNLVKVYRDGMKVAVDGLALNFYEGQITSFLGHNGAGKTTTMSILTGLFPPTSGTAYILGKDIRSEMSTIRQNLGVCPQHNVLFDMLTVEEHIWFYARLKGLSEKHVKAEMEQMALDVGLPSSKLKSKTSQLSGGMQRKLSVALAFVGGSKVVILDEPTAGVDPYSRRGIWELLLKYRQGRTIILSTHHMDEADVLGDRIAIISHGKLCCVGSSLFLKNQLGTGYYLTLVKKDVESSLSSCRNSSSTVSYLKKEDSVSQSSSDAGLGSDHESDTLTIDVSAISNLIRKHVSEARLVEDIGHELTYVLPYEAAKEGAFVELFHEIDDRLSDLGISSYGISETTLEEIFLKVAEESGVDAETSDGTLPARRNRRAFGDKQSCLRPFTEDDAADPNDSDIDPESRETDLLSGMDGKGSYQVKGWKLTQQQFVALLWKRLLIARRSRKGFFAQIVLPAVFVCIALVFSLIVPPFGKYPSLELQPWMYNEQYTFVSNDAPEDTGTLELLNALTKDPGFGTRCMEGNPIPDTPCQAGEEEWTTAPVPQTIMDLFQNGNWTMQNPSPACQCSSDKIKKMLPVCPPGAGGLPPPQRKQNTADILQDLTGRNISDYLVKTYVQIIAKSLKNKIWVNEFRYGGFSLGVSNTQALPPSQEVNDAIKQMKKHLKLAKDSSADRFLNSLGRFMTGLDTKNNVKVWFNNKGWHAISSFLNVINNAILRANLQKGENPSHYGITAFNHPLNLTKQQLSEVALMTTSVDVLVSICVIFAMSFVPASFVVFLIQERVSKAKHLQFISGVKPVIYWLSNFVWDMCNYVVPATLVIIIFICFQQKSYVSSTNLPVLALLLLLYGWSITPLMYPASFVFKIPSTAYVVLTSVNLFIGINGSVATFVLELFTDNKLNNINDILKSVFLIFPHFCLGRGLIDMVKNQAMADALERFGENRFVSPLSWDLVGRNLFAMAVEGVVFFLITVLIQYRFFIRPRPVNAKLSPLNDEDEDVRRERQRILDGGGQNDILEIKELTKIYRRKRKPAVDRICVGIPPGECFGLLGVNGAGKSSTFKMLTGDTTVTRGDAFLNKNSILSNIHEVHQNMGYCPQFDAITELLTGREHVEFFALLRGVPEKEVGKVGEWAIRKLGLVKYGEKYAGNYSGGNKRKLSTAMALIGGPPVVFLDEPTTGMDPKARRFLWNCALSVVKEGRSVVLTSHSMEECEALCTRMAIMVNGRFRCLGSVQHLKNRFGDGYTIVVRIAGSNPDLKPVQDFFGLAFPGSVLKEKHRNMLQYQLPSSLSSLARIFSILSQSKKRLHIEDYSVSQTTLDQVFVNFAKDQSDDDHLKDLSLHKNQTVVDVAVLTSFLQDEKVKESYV
UniProt O94822: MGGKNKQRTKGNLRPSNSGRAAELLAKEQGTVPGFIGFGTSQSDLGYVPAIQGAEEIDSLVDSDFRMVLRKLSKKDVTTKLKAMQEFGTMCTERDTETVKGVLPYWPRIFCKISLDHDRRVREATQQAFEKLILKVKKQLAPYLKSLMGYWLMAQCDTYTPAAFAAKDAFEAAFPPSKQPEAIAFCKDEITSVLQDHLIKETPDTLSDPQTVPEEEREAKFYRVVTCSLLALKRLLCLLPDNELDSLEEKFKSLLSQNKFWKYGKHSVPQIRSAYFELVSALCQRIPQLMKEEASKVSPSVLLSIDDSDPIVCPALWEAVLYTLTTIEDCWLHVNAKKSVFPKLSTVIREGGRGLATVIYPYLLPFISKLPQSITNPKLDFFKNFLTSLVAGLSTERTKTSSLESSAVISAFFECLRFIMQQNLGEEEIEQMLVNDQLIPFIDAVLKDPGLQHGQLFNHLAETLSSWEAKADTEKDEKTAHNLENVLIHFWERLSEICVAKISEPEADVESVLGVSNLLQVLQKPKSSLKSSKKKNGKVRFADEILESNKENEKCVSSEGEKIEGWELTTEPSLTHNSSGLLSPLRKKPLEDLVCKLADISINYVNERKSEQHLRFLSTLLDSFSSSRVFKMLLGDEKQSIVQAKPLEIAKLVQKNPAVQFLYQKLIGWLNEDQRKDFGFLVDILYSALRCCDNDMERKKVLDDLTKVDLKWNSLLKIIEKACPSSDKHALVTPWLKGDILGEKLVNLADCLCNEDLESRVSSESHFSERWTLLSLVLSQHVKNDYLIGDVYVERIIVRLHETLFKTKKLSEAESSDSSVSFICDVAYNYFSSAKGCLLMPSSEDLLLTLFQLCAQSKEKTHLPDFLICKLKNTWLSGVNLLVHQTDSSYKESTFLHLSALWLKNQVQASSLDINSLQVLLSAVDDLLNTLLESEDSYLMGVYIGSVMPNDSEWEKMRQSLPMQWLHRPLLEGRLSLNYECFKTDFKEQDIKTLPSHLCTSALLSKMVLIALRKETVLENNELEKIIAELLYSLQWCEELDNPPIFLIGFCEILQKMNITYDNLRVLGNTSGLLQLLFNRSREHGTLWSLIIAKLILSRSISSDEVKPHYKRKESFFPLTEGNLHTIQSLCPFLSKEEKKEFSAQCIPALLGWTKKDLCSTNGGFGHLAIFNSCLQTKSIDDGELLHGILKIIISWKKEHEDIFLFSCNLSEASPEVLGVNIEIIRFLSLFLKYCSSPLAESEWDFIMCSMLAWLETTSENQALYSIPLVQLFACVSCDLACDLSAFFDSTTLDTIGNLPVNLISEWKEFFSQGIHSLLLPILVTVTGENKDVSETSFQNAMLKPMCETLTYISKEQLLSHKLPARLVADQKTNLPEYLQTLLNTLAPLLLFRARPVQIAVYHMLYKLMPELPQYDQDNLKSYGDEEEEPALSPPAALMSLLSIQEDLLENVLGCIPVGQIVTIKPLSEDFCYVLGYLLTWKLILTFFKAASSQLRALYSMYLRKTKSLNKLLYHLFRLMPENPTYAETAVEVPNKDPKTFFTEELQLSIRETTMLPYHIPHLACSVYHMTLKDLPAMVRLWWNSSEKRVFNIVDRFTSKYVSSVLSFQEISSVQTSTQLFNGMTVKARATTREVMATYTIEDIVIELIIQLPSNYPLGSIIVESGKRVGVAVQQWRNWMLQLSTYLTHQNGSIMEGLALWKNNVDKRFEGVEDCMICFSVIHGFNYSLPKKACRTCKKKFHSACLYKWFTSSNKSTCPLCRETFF
UniProt Q6A009: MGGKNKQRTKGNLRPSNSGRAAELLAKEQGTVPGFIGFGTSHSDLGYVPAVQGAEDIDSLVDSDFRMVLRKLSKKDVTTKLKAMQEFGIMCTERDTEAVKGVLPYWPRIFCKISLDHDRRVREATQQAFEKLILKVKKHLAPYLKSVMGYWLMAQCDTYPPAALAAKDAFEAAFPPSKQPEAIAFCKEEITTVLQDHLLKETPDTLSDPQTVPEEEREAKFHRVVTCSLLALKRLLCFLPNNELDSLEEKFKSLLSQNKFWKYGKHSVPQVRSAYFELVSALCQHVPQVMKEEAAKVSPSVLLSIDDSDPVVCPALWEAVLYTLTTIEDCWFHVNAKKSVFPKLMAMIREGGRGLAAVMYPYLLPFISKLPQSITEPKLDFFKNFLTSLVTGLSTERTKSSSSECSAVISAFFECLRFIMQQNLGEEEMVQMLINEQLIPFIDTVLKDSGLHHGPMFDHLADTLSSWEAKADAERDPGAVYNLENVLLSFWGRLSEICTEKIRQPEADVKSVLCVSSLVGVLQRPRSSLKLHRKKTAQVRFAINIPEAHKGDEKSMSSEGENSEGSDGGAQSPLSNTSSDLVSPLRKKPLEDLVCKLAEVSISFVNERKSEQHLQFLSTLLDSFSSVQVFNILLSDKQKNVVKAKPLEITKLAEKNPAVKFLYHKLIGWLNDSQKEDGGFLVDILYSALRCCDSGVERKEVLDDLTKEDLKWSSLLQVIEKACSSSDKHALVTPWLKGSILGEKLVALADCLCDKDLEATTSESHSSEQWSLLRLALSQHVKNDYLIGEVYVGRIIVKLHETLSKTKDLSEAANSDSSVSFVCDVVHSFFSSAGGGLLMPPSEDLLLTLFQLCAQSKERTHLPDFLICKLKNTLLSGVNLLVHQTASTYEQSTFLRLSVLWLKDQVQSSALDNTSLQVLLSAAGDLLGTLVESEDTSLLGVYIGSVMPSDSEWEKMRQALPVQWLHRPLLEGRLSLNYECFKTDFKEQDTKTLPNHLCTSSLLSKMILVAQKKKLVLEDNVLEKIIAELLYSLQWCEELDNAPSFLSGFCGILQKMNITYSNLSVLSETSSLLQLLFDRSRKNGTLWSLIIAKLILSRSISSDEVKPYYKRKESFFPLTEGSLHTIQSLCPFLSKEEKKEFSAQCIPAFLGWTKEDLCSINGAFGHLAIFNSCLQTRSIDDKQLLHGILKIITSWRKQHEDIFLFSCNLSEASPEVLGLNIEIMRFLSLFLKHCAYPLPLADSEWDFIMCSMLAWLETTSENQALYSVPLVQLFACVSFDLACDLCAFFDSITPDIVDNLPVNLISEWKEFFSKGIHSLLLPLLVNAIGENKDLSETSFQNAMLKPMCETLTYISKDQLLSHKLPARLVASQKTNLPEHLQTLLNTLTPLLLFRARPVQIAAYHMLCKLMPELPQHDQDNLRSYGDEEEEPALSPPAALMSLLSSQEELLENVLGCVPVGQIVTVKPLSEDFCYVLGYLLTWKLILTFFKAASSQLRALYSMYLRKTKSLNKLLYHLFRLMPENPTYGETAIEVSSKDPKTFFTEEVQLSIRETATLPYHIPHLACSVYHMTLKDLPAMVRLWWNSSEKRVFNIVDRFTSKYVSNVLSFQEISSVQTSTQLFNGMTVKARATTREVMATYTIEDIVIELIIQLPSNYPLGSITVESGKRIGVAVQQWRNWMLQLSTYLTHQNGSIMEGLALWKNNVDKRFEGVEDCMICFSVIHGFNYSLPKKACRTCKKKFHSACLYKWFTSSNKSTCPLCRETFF
UniProt Q99LI8: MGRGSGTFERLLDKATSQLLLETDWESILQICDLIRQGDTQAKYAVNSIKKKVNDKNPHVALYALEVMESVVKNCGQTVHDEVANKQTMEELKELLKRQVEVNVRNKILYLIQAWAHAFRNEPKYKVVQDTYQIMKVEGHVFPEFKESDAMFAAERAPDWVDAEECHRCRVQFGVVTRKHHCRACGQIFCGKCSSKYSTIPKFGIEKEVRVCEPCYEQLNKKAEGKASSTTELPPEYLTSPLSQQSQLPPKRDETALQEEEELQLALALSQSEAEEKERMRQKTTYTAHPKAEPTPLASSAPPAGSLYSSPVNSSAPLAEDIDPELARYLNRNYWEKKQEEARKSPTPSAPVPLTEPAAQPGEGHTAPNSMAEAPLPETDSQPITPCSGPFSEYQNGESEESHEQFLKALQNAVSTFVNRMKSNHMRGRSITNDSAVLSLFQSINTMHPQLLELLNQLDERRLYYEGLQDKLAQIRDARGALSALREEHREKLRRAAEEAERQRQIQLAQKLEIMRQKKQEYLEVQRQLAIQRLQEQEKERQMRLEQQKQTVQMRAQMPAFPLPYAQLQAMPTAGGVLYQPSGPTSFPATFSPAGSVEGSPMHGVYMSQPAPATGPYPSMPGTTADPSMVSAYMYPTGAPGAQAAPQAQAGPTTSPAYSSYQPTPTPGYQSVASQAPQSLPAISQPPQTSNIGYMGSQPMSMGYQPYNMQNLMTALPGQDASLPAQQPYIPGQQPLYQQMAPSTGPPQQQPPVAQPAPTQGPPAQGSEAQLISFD

Key:
GFP-ABCA1 (WT) (human) = GFP-ABCA1 (WT) (human) (UniProt O95477); experiment: co-IP; HEK293T cells co-expressing Flag-Listerin with GFP-ABCA1 (WT or truncation mutants), Myc-ABCG1 or Myc-SRB1
Myc-SRB1 = target: T1, Myc-SRB1 (UniProt Q8WTV0); experiment: as above
T1 sequence: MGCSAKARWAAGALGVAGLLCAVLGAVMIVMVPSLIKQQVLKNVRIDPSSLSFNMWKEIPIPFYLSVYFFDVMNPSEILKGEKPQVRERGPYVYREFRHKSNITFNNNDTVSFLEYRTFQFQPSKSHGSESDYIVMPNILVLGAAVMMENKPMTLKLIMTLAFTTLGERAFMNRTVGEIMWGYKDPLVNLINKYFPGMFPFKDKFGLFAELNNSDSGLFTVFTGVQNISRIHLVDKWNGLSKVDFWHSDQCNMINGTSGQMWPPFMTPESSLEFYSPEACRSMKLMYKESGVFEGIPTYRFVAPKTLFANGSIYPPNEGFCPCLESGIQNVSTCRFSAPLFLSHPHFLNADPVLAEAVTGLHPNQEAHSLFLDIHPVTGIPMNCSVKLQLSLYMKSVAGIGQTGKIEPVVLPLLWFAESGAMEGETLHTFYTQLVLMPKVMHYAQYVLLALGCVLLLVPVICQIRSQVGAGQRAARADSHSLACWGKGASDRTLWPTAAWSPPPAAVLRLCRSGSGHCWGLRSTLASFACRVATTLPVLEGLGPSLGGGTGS

[1] = target: ATP-binding cassette transporter A1 (ABCA1), endogenous in mouse peritoneal macrophages (mouse (endogenous in peritoneal macrophages)) (UniProt P41233); experiment: co-IP; endogenous proteins in primary mouse PMs treated with oxLDL (50 μg/mL) for the indicated durations; an equal amount of nonspecific antibody as negative control
[2] = target: ATP-binding cassette transporter A1 (ABCA1), endogenous in mouse peritoneal macrophages (mouse (endogenous in peritoneal macrophages)) (UniProt P41233); experiment: co-IP; endogenous ABCA1 and HRS in oxLDL-treated PMs, with and without Listerin deficiency; an equal amount of nonspecific antibody as negative control

Flag-Listerin (from UniProt O94822 1-1766) (enzyme)
binding (GFP-ABCA1 (WT) (human)): binds | binding (Myc-SRB1): no binding

Listerin E3 ubiquitin protein ligase 1 (Listerin), endogenous in mouse peritoneal macrophages (from UniProt Q6A009 1-1767) (enzyme)
binding [1]: binds

hepatocyte growth factor–regulated tyrosine kinase substrate (HRS), endogenous in mouse peritoneal macrophages (from UniProt Q99LI8 1-775)
binding [2]: binds
